The values that follow come from patent US20150136233A1, “ORGANIC PHOTOVOLTAIC DEVICES COMPRISING FULLERENES AND DERIVATIVES” (The Regents of the University of California, priority 2013, published 2015).

Values joined by “and” are separate entries in the source; they are usually repeats but may differ in a detail not shown here. Equal entries are not always repeated.

A short description of series [1]: Bulk heterojunction solar cell device, P3HT as donor, J-V at 1 sun (AM 1.5G). Particulars: Table 5, single or mixed pristine and mono-fullerene acceptor.
Series [2] can be described thus: Bulk heterojunction solar cell device, PCDT-2FBT as donor, J-V at 1 sun (AM 1.5G). The settings on record: Table 4, PCDT-2FBT donor, single or mixed mono and bis-fullerene acceptor.

`COC(=O)CCCC1(c2ccccc2)C23c4c5c6c7c8c9c(c%10c%11c2c2c%12c4c4c%13c5c5c7c7c8c8c%14c9c%10c9c%10c%11c2c2c%11c%12c4c4c%12c%13c5c5c7c7c8c8c%14c9c9c%10c2c2c%11c4c4c%12c5c7c5c8c9c2c45)C613` (centres unmarked) [PC61BM, [6,6]-phenyl C61-butyric acid methyl ester]: in series [1], the Jsc was 9.74 ± 0.26 mA/cm^2, the Voc is on record as 0.62 ± 0.004 V, the ff worked out at 0.67 ± 0.01 and the “η (power conversion efficiency)” value came to 4.04 ± 0.16%. Further, in series [2], the Ff stood at 0.47 ± 0.003 and the Voc came to 0.58 ± 0.001 V. In addition, in series [2] (listed as PCBM), the Jsc is 4.64 mA/cm^2 and 4.64 ± 0.12 mA/cm^2; the “η (power conversion efficiency)” value is 1.27% and 1.27 ± 0.03%.
